Assay results as given in patent publication US12319742.
Results are given in words; binding and its absence hold for the method and conditions named. Some binding calls cover weakened binding; strength is not graded here.

Sequences of proteins named here, by UniProt entry; tags and fusion partners are left off. Residues count along the entry.
UniProt Q93038, residues 25-199: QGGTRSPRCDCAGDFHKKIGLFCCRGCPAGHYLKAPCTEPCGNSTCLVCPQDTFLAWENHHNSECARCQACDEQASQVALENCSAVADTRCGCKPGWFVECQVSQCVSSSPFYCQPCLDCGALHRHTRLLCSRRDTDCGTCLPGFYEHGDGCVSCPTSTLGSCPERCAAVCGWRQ

Columns and labels:
[1] = target: biotinylated recombinant human TNFRSF25-His tagged (Acro #TN5-H52H3) (human) (UniProt Q93038); test: MSD plate binding; biotinylated recombinant human TNFRSF25 on streptavidin plate, antibody in solution, sulfo-tag anti-human Fc
[2] = target: biotinylated recombinant human TNFRSF25-His tagged (Acro #TN5-H52H3) (human) (UniProt Q93038); test: MSD competition (upper panel); antibody on TNFRSF25-coated plate, wash, then TL1A-rabbit Fc at 0.4 ug/ml, sulfo-tag anti-rabbit detection
[3] = target: biotinylated recombinant human TNFRSF25-His tagged (Acro #TN5-H52H3) (human) (UniProt Q93038); test: BLI (Octet Red 96e); biotinylated TNFRSF25-His on streptavidin sensor, 600 s association, 600 s dissociation
[4] = target: biotinylated recombinant human TNFRSF25-His tagged (Acro #TN5-H52H3) (human) (UniProt Q93038); test: MSD plate binding; TNFRSF25 precoated, unpurified scFv supernatant in 2-fold serial dilutions, detection of the C-terminal myc tag
[5] = target: biotinylated recombinant human TNFRSF25-His tagged (Acro #TN5-H52H3) (human) (UniProt Q93038); test: MSD competition; scFv supernatant serially diluted on TNFRSF25-coated plate, then TL1A added and the remaining TL1A detected

| binding [1] | binding [2] | binding [3] | binding [4] | binding [5] | Binder |
| --- | --- | --- | --- | --- | --- |
| binds | binds | binds | – | – | NH46 (whole antibody) (antibody, human IgG1, kappa, V domains shown) VH: QVQLVQSGSEVKKPGASVRVSCKVSGSTVKELSMHWVRQAPGKGLEWMGGYDPEDGESIFAQKFQGRVNMTEDRSTDTAYMELSSLRSEDTAVYYCATDLNWEDAFDVWGQGTMVTVSS VL: QSVLTQPPSVSAAPGQKVTISCSGSGSNIGNYYVAWYQQFPGTAPKLLIYDNNKRPSGIPDRFSGSKSGTSATLGITGLQTGDEADYYCGTWDTSLTAGDIYVFGTGTKVTVLR |
| binds | binds | binds | – | – | NH24 (whole antibody) (antibody, human IgG1, kappa, V domains shown) VH: EVQLVESGGGSVQPGGSLRLSCAASGFTFSSYGMSWIRQAPGKGLEWISYISSSGGHTYYADSVKGRFTISRDNAKNSLYLQMNSLRAEDTAVYYCARGSGSFDYWGQGTLVTVSS VL: DIVMTQSPSSLSASVGDRVTITCQASQDITNYLSWYQQKPGKAPKLLISDASNLETGIPSRFSGSGSGTDFTFTISSLQPEDIATYYCQQYDTLPITFGQGTRLEIKR |
| – | – | – | binds | binds | NH24-35 (scFv, not shown: small tags and cut ends) scFv: EVQLVESGGGSVQPGGSLRLSCAASGFTFSSYGMSWIRQAPGKGLEWVSYISSSGGHTYYADSVKGRFTISRDNAKNSLYLQMNSLRAEDTAVYYCARYSGAFDHWGQGTLVTVSSGGRGSGGGGSGSGGSDIVMTQSPSSLSASVGDRVTITCQASQDITNYLSWYQQKPGKAPKLLINDASNLETGVPSRFSGSGSGTDFTFTISSLQPEDIATYYCQQYDTLPITFGQGTRLEIKR |
